Record: PubChem BioAssay AID1224830 (NIAID, 2016)

Test: 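Genes whose knock-down alters the TNF-alpha reporter response to LPS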 (primary screen)
Cells: human THP-1 monocytic leukaemia cells, TNF dual-luciferase reporter clone, PMA-differentiated to macrophage-like cells
Knock-down reagent: siRNA pool against human genes, 50 nM
Timing: LPS for 4 h, given about 3 days after siRNA transfection
Treatment: bacterial LPS (TLR4 ligand), 10 ng/ml
Measurement: 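TNF firefly reporter luminescence divided by renilla, normalised to the plate median, then turned into a robust z-score for each replicate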
Direction: TNF reporter robust z-score: higher = stronger TNF reporter response to LPS
Hit rule: 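a well is active when its z-score exceeds 2.8 or falls below -1.5; control wells carry no call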
The whole screen tested about 18,000 reagents; this is a part drawn at random. About 2,900 of all reagents (16%) count as active. 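Calls are made per well; low scores hint the gene aids the LPS response, high scores that it dampens it.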 Repeated entries: four replicate wells of each siRNA pool. No sequences are given here.

gene | TNF reporter robust z-score | Call
VANGL1 | 0.14 | inactive
VANGL1 | -0.37 | inactive
VANGL1 | -0.39 | inactive
VANGL1 | -0.61 | inactive
SLC23A3 | -0.91 | inactive
SLC23A3 | -0.61 | inactive
SLC23A3 | -0.32 | inactive
SLC23A3 | 0.41 | inactive
H2BC7 | -0.08 | inactive
H2BC7 | 0.3 | inactive
H2BC7 | -0.21 | inactive
H2BC7 | 0.18 | inactive
AKT2 | -0.24 | inactive
AKT2 | -0.72 | inactive
AKT2 | -0.61 | inactive
AKT2 | 0.35 | inactive
MAPRE3 | -0.95 | inactive
MAPRE3 | -0.02 | inactive
MAPRE3 | -0.85 | inactive
MAPRE3 | 0.15 | inactive
KIZ | -1.04 | inactive
KIZ | 0.27 | inactive
KIZ | 0.46 | inactive
KIZ | 0.67 | inactive
LGR6 | -0.75 | inactive
LGR6 | -0.06 | inactive
LGR6 | -0.58 | inactive
LGR6 | -0.5 | inactive
OLFML2A | -0.39 | inactive
OLFML2A | -0.98 | inactive
OLFML2A | -1.36 | inactive
OLFML2A | -1.08 | inactive
FLT1 | -0.14 | inactive
FLT1 | 0.53 | inactive
FLT1 | 0.12 | inactive
FLT1 | 1.54 | inactive
HPS4 | -0.31 | inactive
HPS4 | -0.34 | inactive
HPS4 | -1.07 | inactive
HPS4 | 0.59 | inactive
GALNT16 | 0.12 | inactive
GALNT16 | -0.54 | inactive
GALNT16 | -1.04 | inactive
GALNT16 | -0.07 | inactive
LATS2 | -0.05 | inactive
LATS2 | 0.73 | inactive
LATS2 | 0.94 | inactive
LATS2 | 1.1 | inactive
JPH2 | -0.01 | inactive
JPH2 | 0.86 | inactive
JPH2 | -0.97 | inactive
JPH2 | 0.56 | inactive
FAM194C | 1.51 | inactive
FAM194C | 2.45 | inactive
FAM194C | 0.75 | inactive
FAM194C | 0.49 | inactive
TXNDC12 | 1.13 | inactive
TXNDC12 | 0.86 | inactive
TXNDC12 | 1.17 | inactive
TXNDC12 | 3.09 | active

Laid out differently: entries from further up
| gene | TNF reporter robust z-score | Call |
| --- | --- | --- |
| HPS4 | -1.07 | inactive |
| HPS4 | 0.59 | inactive |
| GALNT16 | 0.12 | inactive |
| GALNT16 | -0.54 | inactive |
| GALNT16 | -1.04 | inactive |
| GALNT16 | -0.07 | inactive |
| LATS2 | -0.05 | inactive |
| LATS2 | 0.73 | inactive |
| LATS2 | 0.94 | inactive |
| LATS2 | 1.1 | inactive |
| JPH2 | -0.01 | inactive |

Continued:
gene | TNF reporter robust z-score | Call
PGA5 | 0.15 | inactive
PGA5 | 3.36 | active
PGA5 | 1.23 | inactive
PGA5 | -0.4 | inactive
RGMB | 0.37 | inactive
RGMB | 0.49 | inactive
RGMB | -0.99 | inactive
RGMB | -0.21 | inactive
GLT1D1 | -0.15 | inactive
GLT1D1 | -0.36 | inactive
GLT1D1 | -0.42 | inactive
GLT1D1 | -0.29 | inactive
FOXJ1 | -0.07 | inactive
FOXJ1 | 0.84 | inactive
FOXJ1 | 0.9 | inactive
FOXJ1 | 2.73 | inactive
C4orf46 | 0.36 | inactive
C4orf46 | -0.28 | inactive
C4orf46 | 0.24 | inactive
C4orf46 | 0.08 | inactive
RGS14 | 1.71 | inactive
RGS14 | 1.9 | inactive
RGS14 | 1.15 | inactive
RGS14 | 0.45 | inactive
ALPK3 | 2.57 | inactive
ALPK3 | 3.93 | active
ALPK3 | 2.14 | inactive
ALPK3 | 1.69 | inactive
WDR75 | -0.58 | inactive
WDR75 | -0.22 | inactive
WDR75 | 0.26 | inactive
WDR75 | 0.61 | inactive
NBPF7P | -0.66 | inactive
NBPF7P | -0.28 | inactive
NBPF7P | 0.23 | inactive
NBPF7P | 0.11 | inactive
PRAMEF12 | -0.75 | inactive
PRAMEF12 | 1.44 | inactive
PRAMEF12 | 1.06 | inactive
PRAMEF12 | 2.2 | inactive
TFE3 | -0.68 | inactive
TFE3 | -0.12 | inactive
TFE3 | -0.25 | inactive
TFE3 | 0.2 | inactive
EPHX4 | -0.33 | inactive
EPHX4 | 0.86 | inactive
EPHX4 | 0.2 | inactive
EPHX4 | 0.47 | inactive
ASIC4 | -0.77 | inactive
ASIC4 | 0.32 | inactive
ASIC4 | -0.56 | inactive
ASIC4 | -0.15 | inactive
